Measurements reported in patent US12655458B2 (priority 2021, dated 2026).

Assay: general procedure: Fmoc solid-phase peptide synthesis; Rink amide MBHA resin or 2-chlorotrityl chloride resin; PyBop/DIEA
Conditions: head-to-tail ring, sequence written open; for cyclisation yield: cyclisation step; for step yield: late stage modification step

Row | Substance | cyclisation yield [%] | step yield [%]
1 | GGVCPKILKKCRRDSDCPGACICRGNGYCGSGSN(OH)IV | 95 | >95
2 | ACRCLCRRGDCRCICRGN(OH)SL | 95 | >95
3 | GLPVCGETCFGGTCNTPGCSCTWPICTRN(OH)IV | 80 | >95
4 | GRCTKSIPPICFPN(OH)IV | 85 | >95
